The target in one assay is T1, Noc2-TAP (S. cerevisiae) (UniProt P39744).
T1 sequence: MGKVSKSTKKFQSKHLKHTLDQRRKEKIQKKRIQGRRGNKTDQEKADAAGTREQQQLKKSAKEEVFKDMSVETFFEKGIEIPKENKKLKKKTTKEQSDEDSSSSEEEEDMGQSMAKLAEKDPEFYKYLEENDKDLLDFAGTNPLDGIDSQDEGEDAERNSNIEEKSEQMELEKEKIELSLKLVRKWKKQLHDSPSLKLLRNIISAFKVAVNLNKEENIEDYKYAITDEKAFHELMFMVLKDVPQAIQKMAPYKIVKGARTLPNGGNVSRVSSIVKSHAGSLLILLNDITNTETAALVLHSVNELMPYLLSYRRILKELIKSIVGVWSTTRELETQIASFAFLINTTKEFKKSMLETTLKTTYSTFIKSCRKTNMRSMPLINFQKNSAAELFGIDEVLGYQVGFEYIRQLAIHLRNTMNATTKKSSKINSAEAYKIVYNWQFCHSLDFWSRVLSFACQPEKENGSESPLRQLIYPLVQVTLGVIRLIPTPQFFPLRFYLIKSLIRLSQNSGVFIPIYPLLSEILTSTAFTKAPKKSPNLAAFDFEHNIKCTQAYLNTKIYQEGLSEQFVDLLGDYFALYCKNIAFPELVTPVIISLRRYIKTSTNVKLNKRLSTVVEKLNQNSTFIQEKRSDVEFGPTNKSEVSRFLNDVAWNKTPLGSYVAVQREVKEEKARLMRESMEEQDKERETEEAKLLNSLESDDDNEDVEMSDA
The assay can be described thus: co-IP; Noc2-TAP purification from wild-type control and GAL1-RPL3, GAL1-NPA1 and GAL1-SSF1 Δssf2 strains grown in galactose (YPG) or shifted to glucose (YPD) for about 18 h; western blotting (Supplementary Figure S8). In general terms: Immunoblotting shows a protein as a band on a membrane.

Another assay deals with T2, Ssf1-TAP (S. cerevisiae) (UniProt P38789).
T2 sequence: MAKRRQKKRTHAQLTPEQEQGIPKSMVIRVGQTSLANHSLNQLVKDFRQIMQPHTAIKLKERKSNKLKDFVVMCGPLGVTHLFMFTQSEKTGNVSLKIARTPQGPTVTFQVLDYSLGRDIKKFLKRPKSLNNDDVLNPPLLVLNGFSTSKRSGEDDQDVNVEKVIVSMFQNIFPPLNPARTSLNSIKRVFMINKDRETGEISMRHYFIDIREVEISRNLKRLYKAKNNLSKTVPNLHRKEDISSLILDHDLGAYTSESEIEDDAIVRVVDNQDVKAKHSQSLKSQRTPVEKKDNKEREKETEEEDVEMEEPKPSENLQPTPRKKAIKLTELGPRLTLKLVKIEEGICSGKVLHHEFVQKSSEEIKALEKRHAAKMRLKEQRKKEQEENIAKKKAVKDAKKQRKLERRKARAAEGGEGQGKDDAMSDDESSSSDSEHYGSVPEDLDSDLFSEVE
The assay can be described thus: co-IP; tandem-affinity purification from yeast lysate (IgG Sepharose, TEV elution, Calmodulin Sepharose, EGTA elution); 50 mM Tris-HCl pH 7.5, 100 mM NaCl, 1.5 mM MgCl2, 0.1% NP-40, 1 mM DTT; eluates analysed by western blotting; for Figure 8C from wild-type and Δrbp95 strains.

The next assay concerns the target T3, Rix1-TAP (S. cerevisiae) (UniProt P38883).
T3 sequence: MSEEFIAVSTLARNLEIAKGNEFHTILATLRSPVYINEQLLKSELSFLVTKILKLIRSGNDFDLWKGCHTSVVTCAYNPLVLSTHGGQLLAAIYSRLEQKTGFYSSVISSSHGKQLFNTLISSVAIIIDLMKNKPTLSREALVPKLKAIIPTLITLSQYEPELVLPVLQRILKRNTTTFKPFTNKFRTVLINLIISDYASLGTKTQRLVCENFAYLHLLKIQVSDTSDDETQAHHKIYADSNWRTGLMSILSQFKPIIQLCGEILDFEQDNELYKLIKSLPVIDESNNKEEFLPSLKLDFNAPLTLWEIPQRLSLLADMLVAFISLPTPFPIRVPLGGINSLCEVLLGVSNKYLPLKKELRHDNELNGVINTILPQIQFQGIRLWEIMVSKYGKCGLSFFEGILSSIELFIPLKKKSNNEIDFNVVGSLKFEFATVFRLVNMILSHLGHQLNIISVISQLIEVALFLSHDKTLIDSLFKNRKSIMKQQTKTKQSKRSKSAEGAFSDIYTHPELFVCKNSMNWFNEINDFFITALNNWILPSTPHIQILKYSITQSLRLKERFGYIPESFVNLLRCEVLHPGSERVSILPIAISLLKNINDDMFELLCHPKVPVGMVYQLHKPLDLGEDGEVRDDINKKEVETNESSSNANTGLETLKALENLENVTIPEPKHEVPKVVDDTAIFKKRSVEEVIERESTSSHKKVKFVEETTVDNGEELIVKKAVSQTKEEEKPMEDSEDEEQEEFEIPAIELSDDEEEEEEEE
Described as above.

For the next assay, the target named is T4, Arx1-TAP (S. cerevisiae) (UniProt Q03862).
T4 sequence: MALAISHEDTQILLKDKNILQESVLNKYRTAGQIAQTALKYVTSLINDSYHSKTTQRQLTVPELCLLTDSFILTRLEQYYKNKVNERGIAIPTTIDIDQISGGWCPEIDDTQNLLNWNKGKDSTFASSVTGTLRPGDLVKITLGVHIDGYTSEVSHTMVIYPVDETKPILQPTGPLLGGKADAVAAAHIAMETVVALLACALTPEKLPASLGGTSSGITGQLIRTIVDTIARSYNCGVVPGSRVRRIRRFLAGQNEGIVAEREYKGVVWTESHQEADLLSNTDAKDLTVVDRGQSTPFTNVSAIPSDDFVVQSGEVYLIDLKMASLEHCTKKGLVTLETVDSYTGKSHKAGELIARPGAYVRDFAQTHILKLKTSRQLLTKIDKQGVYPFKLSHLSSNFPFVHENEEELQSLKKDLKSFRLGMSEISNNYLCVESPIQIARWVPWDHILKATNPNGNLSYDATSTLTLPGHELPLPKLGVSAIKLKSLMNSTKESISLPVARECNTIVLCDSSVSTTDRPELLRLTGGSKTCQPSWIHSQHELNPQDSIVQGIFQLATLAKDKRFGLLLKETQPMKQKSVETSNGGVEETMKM
Described as above.

No constants are given. Whether binding was seen depends on the method and setting. Binding seen in cells or lysates may run through a third protein. Some binding calls cover weakened binding; strength is not graded here.

B1: Rbp95 (Ycr016w) (protein, UniProt P25617 1-290)
chain: MSENHVPAWKRIALKRQTISSGDESKEKGQSNLIDDDPLNITTHLSTGNLTKKEKKRIINGESKSSTKKGKRVSKPGTKKKEKLSKDEKNSKKNKILKDQLRYLIEFFRTKSESKFPTGILELESVKENYGDSLIKDEPSESGVVEVWKFSKQKQNWLIKHFFNLDEIPSVYNDLLLLYFRDLQGKSKEELISKCKGKLKQWNDYVEDQETKIKALIAEDKASEPINGEEKEEGEKDGNAEQGKQKEVQDEQEEVQMPNKELVQRSLKLLEIWKNDDSEQIELKNFFVDV
For B1, the binding result with Noc2-TAP (S. cerevisiae) is “binds”; with Ssf1-TAP (S. cerevisiae), “binds”; with Rix1-TAP (S. cerevisiae), “binds weakly”; with Arx1-TAP (S. cerevisiae), “binds weakly”.

(Values after PMC9508819, “Rbp95 binds to 25S rRNA helix H95 and cooperates with the Npa1 complex during early pre-60S particle maturation”.)
